Laboratory results reported in the supplement of paper PMC10849652.
The other results are listed elsewhere or left out.

Chains of the proteins cited; added tags and fusions are not shown. Lines headed by an entry give the natural chain unless they say otherwise; changes in a name come on top.
UniProt P21359: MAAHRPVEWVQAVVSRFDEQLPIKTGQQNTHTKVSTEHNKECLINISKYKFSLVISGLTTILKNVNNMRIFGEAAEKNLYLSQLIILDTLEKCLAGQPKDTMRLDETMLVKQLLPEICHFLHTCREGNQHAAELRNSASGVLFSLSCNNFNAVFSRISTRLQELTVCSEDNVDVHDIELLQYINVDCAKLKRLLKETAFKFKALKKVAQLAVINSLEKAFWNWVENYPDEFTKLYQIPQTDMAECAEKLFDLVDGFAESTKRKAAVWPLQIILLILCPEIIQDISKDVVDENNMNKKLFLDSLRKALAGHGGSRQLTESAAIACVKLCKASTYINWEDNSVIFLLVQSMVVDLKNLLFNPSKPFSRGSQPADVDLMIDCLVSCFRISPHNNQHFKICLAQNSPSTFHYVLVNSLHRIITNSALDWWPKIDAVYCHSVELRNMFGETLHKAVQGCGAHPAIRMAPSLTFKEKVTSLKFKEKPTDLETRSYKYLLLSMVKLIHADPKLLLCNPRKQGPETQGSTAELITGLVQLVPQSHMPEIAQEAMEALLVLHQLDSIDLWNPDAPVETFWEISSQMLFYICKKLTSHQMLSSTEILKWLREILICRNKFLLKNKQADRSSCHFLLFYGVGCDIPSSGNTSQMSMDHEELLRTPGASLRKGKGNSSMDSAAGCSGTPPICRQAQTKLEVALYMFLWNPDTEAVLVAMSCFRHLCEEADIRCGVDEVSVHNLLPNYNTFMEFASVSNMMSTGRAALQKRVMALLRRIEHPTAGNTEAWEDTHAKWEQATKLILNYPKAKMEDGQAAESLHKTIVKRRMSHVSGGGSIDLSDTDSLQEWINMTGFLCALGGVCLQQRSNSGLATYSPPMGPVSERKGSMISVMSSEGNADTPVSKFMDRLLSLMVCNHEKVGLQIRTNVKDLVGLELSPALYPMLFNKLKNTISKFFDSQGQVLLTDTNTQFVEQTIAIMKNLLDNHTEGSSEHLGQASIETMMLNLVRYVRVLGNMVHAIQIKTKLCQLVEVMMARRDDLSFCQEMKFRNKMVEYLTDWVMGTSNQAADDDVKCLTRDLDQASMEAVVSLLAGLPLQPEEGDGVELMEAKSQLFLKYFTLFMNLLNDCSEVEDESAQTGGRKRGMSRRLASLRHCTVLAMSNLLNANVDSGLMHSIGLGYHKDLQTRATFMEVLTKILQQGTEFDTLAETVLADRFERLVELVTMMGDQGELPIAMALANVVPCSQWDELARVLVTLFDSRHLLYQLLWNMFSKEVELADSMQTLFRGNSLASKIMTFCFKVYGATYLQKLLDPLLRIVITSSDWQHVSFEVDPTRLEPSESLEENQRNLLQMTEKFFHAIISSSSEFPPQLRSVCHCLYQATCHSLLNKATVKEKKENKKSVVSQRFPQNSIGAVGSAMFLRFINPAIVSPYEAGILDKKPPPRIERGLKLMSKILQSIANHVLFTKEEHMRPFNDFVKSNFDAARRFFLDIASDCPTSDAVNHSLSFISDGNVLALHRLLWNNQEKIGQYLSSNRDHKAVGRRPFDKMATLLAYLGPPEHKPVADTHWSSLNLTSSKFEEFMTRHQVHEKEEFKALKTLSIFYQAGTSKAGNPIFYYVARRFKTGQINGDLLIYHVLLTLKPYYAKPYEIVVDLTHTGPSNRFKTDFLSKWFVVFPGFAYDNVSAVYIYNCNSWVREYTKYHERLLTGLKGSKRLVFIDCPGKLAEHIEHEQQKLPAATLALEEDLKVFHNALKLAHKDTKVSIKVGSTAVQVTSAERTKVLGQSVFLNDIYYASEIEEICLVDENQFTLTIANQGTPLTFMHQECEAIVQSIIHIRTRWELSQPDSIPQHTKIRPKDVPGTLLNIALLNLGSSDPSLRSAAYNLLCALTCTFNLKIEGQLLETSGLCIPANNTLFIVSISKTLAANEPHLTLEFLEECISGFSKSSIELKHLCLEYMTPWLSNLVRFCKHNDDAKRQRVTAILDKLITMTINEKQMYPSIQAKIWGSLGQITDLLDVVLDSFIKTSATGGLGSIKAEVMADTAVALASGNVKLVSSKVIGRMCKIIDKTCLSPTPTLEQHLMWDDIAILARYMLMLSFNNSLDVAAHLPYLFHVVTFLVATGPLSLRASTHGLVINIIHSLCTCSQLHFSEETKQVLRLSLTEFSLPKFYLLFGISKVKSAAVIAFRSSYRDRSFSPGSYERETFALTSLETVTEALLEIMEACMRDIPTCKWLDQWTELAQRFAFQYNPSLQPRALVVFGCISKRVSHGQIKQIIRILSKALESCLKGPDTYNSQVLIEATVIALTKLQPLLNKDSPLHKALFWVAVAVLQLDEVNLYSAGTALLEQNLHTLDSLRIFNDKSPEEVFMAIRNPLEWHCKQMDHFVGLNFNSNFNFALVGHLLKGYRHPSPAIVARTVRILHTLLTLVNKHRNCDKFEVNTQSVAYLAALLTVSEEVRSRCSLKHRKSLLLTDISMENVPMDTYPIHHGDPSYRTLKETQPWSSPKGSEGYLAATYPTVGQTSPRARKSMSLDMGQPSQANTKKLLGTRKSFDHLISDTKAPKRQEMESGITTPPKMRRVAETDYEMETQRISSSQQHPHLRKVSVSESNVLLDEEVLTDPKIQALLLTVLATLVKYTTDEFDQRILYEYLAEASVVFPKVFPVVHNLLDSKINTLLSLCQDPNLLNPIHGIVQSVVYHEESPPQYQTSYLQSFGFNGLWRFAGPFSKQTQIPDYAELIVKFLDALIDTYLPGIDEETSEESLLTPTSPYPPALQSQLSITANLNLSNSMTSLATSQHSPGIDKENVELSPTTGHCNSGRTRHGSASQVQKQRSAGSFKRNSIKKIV
UniProt Q92636: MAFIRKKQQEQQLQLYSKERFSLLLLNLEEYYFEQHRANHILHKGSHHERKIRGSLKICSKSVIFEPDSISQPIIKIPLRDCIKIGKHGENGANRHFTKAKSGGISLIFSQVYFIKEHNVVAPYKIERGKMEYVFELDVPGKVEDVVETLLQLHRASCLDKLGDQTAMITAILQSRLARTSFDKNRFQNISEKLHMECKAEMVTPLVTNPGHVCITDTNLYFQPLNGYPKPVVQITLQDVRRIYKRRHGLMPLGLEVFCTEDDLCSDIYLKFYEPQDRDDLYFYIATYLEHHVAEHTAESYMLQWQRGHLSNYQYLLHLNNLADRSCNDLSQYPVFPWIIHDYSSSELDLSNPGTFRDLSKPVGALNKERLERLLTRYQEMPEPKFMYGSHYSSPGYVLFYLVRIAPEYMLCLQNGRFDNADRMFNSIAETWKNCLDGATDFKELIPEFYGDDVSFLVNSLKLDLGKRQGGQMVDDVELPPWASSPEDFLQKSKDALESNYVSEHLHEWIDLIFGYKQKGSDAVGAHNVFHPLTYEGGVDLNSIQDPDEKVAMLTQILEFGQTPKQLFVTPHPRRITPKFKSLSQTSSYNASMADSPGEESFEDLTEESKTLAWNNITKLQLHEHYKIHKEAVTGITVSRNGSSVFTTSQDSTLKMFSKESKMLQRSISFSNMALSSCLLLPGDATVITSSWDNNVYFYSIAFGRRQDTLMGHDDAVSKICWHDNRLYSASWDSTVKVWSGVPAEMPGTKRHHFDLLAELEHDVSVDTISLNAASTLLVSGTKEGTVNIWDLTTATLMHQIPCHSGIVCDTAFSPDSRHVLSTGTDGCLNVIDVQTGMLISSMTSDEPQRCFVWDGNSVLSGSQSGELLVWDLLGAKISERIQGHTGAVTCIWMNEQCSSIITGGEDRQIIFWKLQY
UniProt P22392, whole entry, looked up: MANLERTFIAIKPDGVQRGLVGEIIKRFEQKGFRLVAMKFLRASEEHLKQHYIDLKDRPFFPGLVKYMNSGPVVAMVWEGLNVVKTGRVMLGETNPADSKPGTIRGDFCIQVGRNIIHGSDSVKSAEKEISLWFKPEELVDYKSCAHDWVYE
UniProt P61916: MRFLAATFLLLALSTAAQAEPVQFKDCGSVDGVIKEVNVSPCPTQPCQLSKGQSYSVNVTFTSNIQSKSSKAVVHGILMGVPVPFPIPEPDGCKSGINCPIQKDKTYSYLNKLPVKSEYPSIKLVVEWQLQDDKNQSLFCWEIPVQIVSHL
UniProt O75323: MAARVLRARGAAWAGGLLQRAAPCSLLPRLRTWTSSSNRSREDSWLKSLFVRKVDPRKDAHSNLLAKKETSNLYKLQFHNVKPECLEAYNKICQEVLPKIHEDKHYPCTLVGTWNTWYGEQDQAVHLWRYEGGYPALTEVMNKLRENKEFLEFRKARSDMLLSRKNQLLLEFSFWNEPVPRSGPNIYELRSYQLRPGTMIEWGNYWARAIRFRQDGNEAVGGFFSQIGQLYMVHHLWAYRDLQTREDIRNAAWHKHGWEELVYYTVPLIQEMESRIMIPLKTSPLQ
UniProt Q16656: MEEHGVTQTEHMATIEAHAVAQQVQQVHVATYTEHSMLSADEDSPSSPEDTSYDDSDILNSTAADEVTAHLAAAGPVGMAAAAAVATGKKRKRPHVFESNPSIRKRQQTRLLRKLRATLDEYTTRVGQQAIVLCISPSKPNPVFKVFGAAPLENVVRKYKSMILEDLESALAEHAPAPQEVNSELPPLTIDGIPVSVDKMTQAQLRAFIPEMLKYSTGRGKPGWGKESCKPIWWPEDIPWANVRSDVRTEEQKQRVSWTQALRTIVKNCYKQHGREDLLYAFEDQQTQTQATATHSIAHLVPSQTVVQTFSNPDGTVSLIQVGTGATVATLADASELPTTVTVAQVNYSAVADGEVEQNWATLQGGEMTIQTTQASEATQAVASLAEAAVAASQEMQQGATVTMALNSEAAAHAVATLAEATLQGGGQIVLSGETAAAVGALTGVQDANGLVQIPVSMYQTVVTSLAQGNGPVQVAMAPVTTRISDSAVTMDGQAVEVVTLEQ
UniProt Q6ZNB6: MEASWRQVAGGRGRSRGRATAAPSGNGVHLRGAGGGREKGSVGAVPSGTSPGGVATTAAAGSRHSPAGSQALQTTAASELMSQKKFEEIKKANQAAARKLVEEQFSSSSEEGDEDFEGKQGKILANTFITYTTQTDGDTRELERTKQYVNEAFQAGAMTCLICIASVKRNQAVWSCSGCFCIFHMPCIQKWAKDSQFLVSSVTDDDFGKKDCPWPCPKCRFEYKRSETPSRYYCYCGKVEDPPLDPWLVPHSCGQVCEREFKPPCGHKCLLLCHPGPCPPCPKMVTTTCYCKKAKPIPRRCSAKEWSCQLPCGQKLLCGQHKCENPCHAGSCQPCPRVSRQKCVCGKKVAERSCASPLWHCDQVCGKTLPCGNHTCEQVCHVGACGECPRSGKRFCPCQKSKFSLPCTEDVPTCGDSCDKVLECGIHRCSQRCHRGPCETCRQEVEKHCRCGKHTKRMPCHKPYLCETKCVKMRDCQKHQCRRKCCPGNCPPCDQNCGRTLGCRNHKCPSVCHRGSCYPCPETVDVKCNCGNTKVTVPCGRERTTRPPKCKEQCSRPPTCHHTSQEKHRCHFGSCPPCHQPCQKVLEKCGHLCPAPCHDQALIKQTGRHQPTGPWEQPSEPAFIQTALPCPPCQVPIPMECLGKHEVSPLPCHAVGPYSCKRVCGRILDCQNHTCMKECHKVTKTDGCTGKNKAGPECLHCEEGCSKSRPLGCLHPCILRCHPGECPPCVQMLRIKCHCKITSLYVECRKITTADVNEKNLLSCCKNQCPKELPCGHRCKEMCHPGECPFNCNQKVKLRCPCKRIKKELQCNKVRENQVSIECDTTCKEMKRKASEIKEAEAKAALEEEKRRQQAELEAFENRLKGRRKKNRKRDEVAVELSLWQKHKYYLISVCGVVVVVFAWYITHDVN
UniProt Q8NBF2: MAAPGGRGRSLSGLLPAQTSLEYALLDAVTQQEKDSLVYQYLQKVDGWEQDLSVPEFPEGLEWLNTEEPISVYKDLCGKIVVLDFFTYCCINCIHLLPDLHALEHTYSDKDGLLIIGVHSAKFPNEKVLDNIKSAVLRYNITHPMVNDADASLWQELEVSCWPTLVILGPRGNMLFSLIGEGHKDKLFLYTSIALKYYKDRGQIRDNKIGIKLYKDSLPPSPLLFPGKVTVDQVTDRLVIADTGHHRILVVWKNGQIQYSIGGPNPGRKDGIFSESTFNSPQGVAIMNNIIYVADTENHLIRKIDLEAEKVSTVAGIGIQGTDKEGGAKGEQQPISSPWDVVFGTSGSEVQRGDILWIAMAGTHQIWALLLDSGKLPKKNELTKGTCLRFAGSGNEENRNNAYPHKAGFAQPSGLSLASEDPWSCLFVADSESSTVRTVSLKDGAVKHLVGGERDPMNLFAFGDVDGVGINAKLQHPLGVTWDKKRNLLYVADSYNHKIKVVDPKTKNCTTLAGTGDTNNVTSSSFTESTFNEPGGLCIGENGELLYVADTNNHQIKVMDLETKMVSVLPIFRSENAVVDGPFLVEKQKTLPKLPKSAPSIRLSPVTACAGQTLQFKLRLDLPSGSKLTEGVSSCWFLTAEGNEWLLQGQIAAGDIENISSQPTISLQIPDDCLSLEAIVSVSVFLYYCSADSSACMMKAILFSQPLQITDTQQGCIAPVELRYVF

Assays:
Experiment in all cases: log2 fold change, soluble protein after heating vs DMSO (PISA); higher = thermal stabilisation; K562 cells, 10 uM, 30 min; active = over 0.2 and 3.5 SD of the protein, either way, in both replicates (recomputed)
[1] = compound: CC1=C(C=C(C=C1)NC(=O)C2=CC(=CC=C2)C(C)(C)C#N)NC3=CC4=C(C=C3)N=CN(C4=O)C
In short: (§1)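 Soluble protein was quantified by TMTpro 16plex LC-MS/MS after channel sums were equalised. It was obtained as the supernatant after 21,000xg for 90 min from pooled aliquots of K562 cells (2×10^6 cells/mL, 10 μM compound, 30 min) heated for 3 min across 48°C-58°C and extracted in PBS with 0.5% NP-40 at 4°C. Thermal stability values are relative to control samples and come from duplicates. They are given as log2 fold changes.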

[2] = compound: CC1=C(C=C(C=C1)NC(=O)C2=CC(=CC=C2)N(C)C)NC(=O)C3=CC=C(C=C3)O
In short: as §1

[3] = compound: CC1=CC=C(C=C1)SC2=C3C=C(SC3=CN=C2)C(=O)N
In short: as §1

[4] = compound: CC1=NC(=CC=C1)C2=C(N=C(N2)C(C)(C)C)C3=CC4=NC=CN=C4C=C3
In short: as §1

Nexturastat A = compound: CCCCN(Cc1ccc(C(=O)NO)cc1)C(=O)Nc1ccccc1 [Nexturastat A]
In short: as §1

vemurafenib = compound: CCCS(=O)(=O)Nc1ccc(F)c(C(=O)c2c[nH]c3ncc(-c4ccc(Cl)cc4)cc23)c1F [vemurafenib]
In short: as §1

[5] = compound: CCCS(=O)(=O)Nc1ccc(F)c(C(=O)c2c[nH]c3ncc(Cl)cc23)c1F
In short: as §1

[6] = compound: CCCc1cc(C)[nH]c(=O)c1CNC(=O)c1cc(-c2ccnc(N3CCN(C)CC3)c2)cc2c1cnn2C(C)C
In short: as §1

givinostat = compound: CCN(CC)Cc1ccc2cc(COC(=O)Nc3ccc(C(=O)NO)cc3)ccc2c1 [givinostat]
In short: as §1

barasertib = compound: CCN(CCCOc1ccc2c(Nc3cc(CC(=O)Nc4cccc(F)c4)[nH]n3)ncnc2c1)CCOP(=O)(O)O [barasertib]
In short: as §1

[7] = compound: CC[C@@H]1C(=O)N(C)c2cnc(Nc3ccc(C(=O)NC4CCN(C)CC4)cc3OC)nc2N1C1CCCC1
In short: as §1

volasertib = compound: CC[C@@H]1C(=O)N(C)c2cnc(Nc3ccc(C(=O)N[C@H]4CC[C@H](N5CCN(CC6CC6)CC5)CC4)cc3OC)nc2N1C(C)C [volasertib]
In short: as §1

[8] = compound: CC[C@H](C)N1C=C(C2=C(C=C(C=C21)C3=CN=C(C=C3)N4CCNCC4)C(=O)NCC5=C(C=C(NC5=O)C)C)C
In short: as §1

epoxomicin = compound: CC[C@H](C)[C@@H](C(=O)N[C@@H]([C@@H](C)O)C(=O)N[C@@H](CC(C)C)C(=O)[C@]1(CO1)C)NC(=O)[C@H]([C@@H](C)CC)N(C)C(=O)C [epoxomicin]
In short: as §1

[9] = compound: CCn1c(C(=O)N(C2CC2)C2CC2)cc2c3c(ncn3C)c(Nc3cc(C)n(C)n3)nc21
In short: as §1

[10] = compound: CCn1cc(-c2ccnc3[nH]c(-c4cccc(CN(C)C)c4)cc23)c(-c2ccc(NC(=O)N(C)C)cc2)n1
In short: as §1

[11] = compound: CN(C)CC(=O)Nc1ccc2[nH]c(=O)c3ccccc3c2c1
In short: as §1

rosiglitazone = compound: CN(CCOC1=CC=C(C=C1)C[C@H]2C(=O)NC(=O)S2)C3=CC=CC=N3 (racemic) [rosiglitazone]
In short: as §1

[12] = compound: CN1C2=C(C3=C1C(=O)N(N=C3)CC4=CC(=CC=C4)N)SC(=C2)S(=O)C
In short: as §1

[13] = compound: CN1CCC(CNc2ccc3ncc(-c4cccc(OC(F)(F)F)c4)n3n2)CC1
In short: as §1

Measured: log2 fold change

NPM1 (UniProt P06748)
inactive: [1] 0.055 | [2] -0.011 | [3] -0.099 | [4] -0.066 | Nexturastat A 0.17 | vemurafenib -0.058 | [5] -0.042 | [6] 0.145 | givinostat 0.077 | barasertib -0.156 | [7] 0.126 | volasertib 0.279 | [8] 0.015 | epoxomicin -0.304 | [9] 0.057 | [10] 0.188 | [11] -0.057 | rosiglitazone -0.155 | [12] 0.251 | [13] 0.351

NF1 (UniProt P21359)
inactive: [1] -0.152 | [2] -0.046 | [3] -0.216 | [4] -0.132 | Nexturastat A 0.116 | vemurafenib -0.088 | [5] -0.247 | [6] 0.013 | givinostat 0.039 | barasertib 0.084 | [7] 0.115 | volasertib -0.041 | [8] -0.025 | epoxomicin -0.279 | [9] -0.043 | [10] 0.142 | [11] 0.02 | rosiglitazone 0.106 | [12] -0.005 | [13] -0.223

NSMAF (UniProt Q92636)
inactive: [1] -0.004 | [2] 0.049 | [3] -0.006 | [4] -0.007 | Nexturastat A -0.027 | vemurafenib -0.104 | [5] 0.021 | [6] 0.018 | givinostat -0.025 | barasertib -0.041 | [7] -0.052 | volasertib -0.128 | [8] 0.011 | epoxomicin 0.056 | [9] 0.02 | [10] -0.068 | [11] 0.01 | rosiglitazone -0.001 | [12] -0.078 | [13] -0.052

NME2 isoform 2 (UniProt P22392)
inactive: [1] -0.035 | [2] 0.019 | [3] 0.011 | [4] 0.016 | Nexturastat A -0.056 | vemurafenib -0.038 | [5] -0.037 | [6] -0.074 | givinostat -0.031 | barasertib -0.021 | [7] 0.047 | volasertib 0.087 | [8] -0.027 | epoxomicin 0.006 | [9] 0.025 | [10] 0.011 | [11] -0.023 | rosiglitazone 0.011 | [12] -0.057 | [13] -0.032

NPC2 (UniProt P61916)
inactive: [1] -0.038 | [2] 0.021 | [3] 0.141 | [4] -0.016 | Nexturastat A -0.01 | vemurafenib -0.039 | [5] -0.103 | [6] 0.014 | givinostat -0.016 | barasertib 0.046 | [7] -0.002 | volasertib -0.073 | [8] 0 | epoxomicin 0.023 | [9] 0.03 | [10] -0.051 | [11] -0.008 | rosiglitazone -0.043 | [12] -0.037 | [13] 0.025

NOSIP (UniProt Q9Y314)
active: volasertib -1.06
inactive: [1] 0.02 | [2] -0.2 | [3] 0.032 | [4] 0.012 | Nexturastat A 0.149 | vemurafenib 0.247 | [5] 0.168 | [6] 0.047 | givinostat 0.14 | barasertib 0.197 | [7] -0.373 | [8] 0.151 | epoxomicin 0.104 | [10] -0.017 | [11] 0.196 | [12] 0.109 | [13] 0.097

NMD3 (UniProt Q96D46)
inactive: [1] 0.03 | [2] -0.061 | [3] -0.009 | [4] 0.067 | Nexturastat A -0.079 | vemurafenib 0.077 | [5] 0.03 | [6] -0.004 | givinostat -0.024 | barasertib 0.015 | [7] 0.103 | volasertib 0.151 | [8] -0.009 | epoxomicin 0.042 | [10] -0.163 | [11] 0.04 | [12] -0.138 | [13] 0.114

NOL11 (UniProt Q9H8H0)
inactive: [1] -0.023 | [2] 0.029 | [3] 0.004 | [4] 0.013 | Nexturastat A -0.024 | vemurafenib -0.026 | [5] 0.003 | [6] -0.016 | givinostat 0.015 | barasertib -0.021 | [7] 0.029 | volasertib -0.097 | [8] -0.025 | epoxomicin -0.015 | [10] -0.027 | [11] -0.005 | [12] -0.028 | [13] 0.126

NFATC3 (UniProt Q12968)
inactive: [1] 0.067 | [2] -0.506 | [3] 0 | [4] -0.055 | Nexturastat A 0.047 | vemurafenib -0.033 | [5] 0.094 | [6] 0.116 | givinostat 0.088 | barasertib 0.019 | [7] 0.038 | volasertib -0.331 | [8] 0.073 | epoxomicin -0.046 | [10] -0.038 | [11] 0.049 | [12] 0.036 | [13] 0.039

NOLC1 isoform 2 (UniProt Q14978)
inactive: [1] -0.074 | [2] -0.004 | [3] -0.082 | [4] -0.051 | Nexturastat A 0.018 | vemurafenib -0.088 | [5] -0.032 | [6] 0.104 | givinostat 0.143 | barasertib -0.033 | [7] -0.155 | volasertib -0.024 | [8] -0.051 | epoxomicin -0.06 | [10] 0.047 | [11] -0.048 | [12] 0.026 | [13] -0.112

2 entries picked at random from those above:
NPM1 (UniProt P06748)
inactive: [1] 0.055 | [2] -0.011 | [3] -0.099 | [4] -0.066 | Nexturastat A 0.17 | vemurafenib -0.058 | [5] -0.042 | [6] 0.145 | givinostat 0.077 | barasertib -0.156 | [7] 0.126 | volasertib 0.279 | [8] 0.015 | epoxomicin -0.304 | [9] 0.057 | [10] 0.188 | [11] -0.057 | rosiglitazone -0.155 | [12] 0.251 | [13] 0.351

NOL11 (UniProt Q9H8H0)
inactive: [1] -0.023 | [2] 0.029 | [3] 0.004 | [4] 0.013 | Nexturastat A -0.024 | vemurafenib -0.026 | [5] 0.003 | [6] -0.016 | givinostat 0.015 | barasertib -0.021 | [7] 0.029 | volasertib -0.097 | [8] -0.025 | epoxomicin -0.015 | [10] -0.027 | [11] -0.005 | [12] -0.028 | [13] 0.126

(continued)

NIPSNAP2 (UniProt O75323)
inactive: [1] 0.06 | [2] -0.044 | [3] 0.055 | [4] 0 | Nexturastat A -0.072 | vemurafenib 0.06 | [5] 0.029 | [6] 0.007 | givinostat -0.081 | barasertib 0.019 | [7] 0.043 | volasertib 0.009 | [8] -0.003 | epoxomicin 0.07 | [10] -0.115 | [11] -0.041 | [12] -0.083 | [13] 0.028

NNT (UniProt Q13423)
inactive: [1] 0.02 | [2] -0.004 | [3] 0.004 | [4] 0.058 | Nexturastat A -0.091 | vemurafenib 0.025 | [5] 0.016 | [6] -0.023 | givinostat 0.001 | barasertib 0.01 | [7] 0 | volasertib 0.013 | [8] 0.036 | epoxomicin 0.023 | [10] -0.073 | [11] 0.015 | [12] -0.097 | [13] -0.008

NRF1 isoform 4 (UniProt Q16656)
active: volasertib -0.501
inactive: [1] 0.002 | [2] 0.03 | [3] -0.015 | [4] 0.051 | Nexturastat A -0.316 | vemurafenib 0.004 | [5] 0.081 | [6] -0.007 | givinostat 0.042 | barasertib 0.034 | [7] -0.173 | [8] 0.087 | epoxomicin 0.268 | [10] 0.035 | [11] 0.08 | [12] -0.084 | [13] 0.037

NFXL1 (UniProt Q6ZNB6)
inactive: [1] -0.023 | [2] -0.034 | [3] 0.01 | [4] 0 | Nexturastat A -0.019 | vemurafenib -0.012 | [5] -0.01 | [6] -0.064 | givinostat -0.042 | barasertib 0.037 | [7] -0.011 | volasertib -0.131 | [8] 0.012 | epoxomicin 0 | [9] -0.021 | [10] -0.003 | [11] 0 | rosiglitazone -0.005 | [12] -0.052 | [13] -0.006

NIT1 (UniProt Q86X76)
inactive: [1] -0.023 | [2] 0 | [3] 0.063 | [4] 0.002 | Nexturastat A 0.01 | vemurafenib -0.051 | [5] 0 | [6] -0.068 | givinostat 0.007 | barasertib 0.013 | [7] 0.005 | volasertib 0.043 | [8] -0.037 | epoxomicin -0.031 | [9] -0.025 | [10] -0.045 | [11] 0.017 | rosiglitazone 0.01 | [12] 0.02 | [13] 0.02

NEU1 (UniProt Q99519)
active: volasertib -0.501
inactive: [1] 0.031 | [2] -0.048 | [3] 0.029 | [4] 0.118 | Nexturastat A 0.068 | vemurafenib -0.002 | [5] -0.008 | [6] 0.057 | givinostat 0.036 | barasertib 0.059 | [7] -0.184 | [8] 0.059 | epoxomicin 0.113 | [10] 0.052 | [11] 0.012 | [12] 0.015 | [13] -0.079

NHLRC2 (UniProt Q8NBF2)
active: [13] -0.272
inactive: [1] -0.06 | [2] 0.225 | [3] -0.014 | [4] -0.014 | Nexturastat A -0.055 | vemurafenib -0.053 | [5] -0.048 | [6] -0.076 | givinostat -0.006 | barasertib -0.004 | [7] 0.024 | volasertib 0.029 | [8] -0.026 | epoxomicin -0.06 | [10] -0.109 | [11] 0.003 | [12] -0.064
